The target in one assay is 2xStrep-TRIP12 (human) (UniProt Q14669). The assay can be described thus: pull-down; 2xStrep-TRIP12 immobilized on strep resin, incubated with one recombinant protein at 500 nM; 20 mM HEPES pH 7.5, 150 mM NaCl, 0.2% Nonidet P-40; 4°C, 30 minutes, five washes; western blotting; both purified. On the technique in general: Immunoblotting shows a protein as a band on a membrane.

The chains behind the UniProt entries cited, without tags or fusion partners. Where a name states a change or a piece, a line headed by the entry shows the natural chain unless it says otherwise. A line that says so, or that is headed by a name, gives the form on record, which may keep a tag or linker.
2xStrep-TRIP12 (Q14669, form named): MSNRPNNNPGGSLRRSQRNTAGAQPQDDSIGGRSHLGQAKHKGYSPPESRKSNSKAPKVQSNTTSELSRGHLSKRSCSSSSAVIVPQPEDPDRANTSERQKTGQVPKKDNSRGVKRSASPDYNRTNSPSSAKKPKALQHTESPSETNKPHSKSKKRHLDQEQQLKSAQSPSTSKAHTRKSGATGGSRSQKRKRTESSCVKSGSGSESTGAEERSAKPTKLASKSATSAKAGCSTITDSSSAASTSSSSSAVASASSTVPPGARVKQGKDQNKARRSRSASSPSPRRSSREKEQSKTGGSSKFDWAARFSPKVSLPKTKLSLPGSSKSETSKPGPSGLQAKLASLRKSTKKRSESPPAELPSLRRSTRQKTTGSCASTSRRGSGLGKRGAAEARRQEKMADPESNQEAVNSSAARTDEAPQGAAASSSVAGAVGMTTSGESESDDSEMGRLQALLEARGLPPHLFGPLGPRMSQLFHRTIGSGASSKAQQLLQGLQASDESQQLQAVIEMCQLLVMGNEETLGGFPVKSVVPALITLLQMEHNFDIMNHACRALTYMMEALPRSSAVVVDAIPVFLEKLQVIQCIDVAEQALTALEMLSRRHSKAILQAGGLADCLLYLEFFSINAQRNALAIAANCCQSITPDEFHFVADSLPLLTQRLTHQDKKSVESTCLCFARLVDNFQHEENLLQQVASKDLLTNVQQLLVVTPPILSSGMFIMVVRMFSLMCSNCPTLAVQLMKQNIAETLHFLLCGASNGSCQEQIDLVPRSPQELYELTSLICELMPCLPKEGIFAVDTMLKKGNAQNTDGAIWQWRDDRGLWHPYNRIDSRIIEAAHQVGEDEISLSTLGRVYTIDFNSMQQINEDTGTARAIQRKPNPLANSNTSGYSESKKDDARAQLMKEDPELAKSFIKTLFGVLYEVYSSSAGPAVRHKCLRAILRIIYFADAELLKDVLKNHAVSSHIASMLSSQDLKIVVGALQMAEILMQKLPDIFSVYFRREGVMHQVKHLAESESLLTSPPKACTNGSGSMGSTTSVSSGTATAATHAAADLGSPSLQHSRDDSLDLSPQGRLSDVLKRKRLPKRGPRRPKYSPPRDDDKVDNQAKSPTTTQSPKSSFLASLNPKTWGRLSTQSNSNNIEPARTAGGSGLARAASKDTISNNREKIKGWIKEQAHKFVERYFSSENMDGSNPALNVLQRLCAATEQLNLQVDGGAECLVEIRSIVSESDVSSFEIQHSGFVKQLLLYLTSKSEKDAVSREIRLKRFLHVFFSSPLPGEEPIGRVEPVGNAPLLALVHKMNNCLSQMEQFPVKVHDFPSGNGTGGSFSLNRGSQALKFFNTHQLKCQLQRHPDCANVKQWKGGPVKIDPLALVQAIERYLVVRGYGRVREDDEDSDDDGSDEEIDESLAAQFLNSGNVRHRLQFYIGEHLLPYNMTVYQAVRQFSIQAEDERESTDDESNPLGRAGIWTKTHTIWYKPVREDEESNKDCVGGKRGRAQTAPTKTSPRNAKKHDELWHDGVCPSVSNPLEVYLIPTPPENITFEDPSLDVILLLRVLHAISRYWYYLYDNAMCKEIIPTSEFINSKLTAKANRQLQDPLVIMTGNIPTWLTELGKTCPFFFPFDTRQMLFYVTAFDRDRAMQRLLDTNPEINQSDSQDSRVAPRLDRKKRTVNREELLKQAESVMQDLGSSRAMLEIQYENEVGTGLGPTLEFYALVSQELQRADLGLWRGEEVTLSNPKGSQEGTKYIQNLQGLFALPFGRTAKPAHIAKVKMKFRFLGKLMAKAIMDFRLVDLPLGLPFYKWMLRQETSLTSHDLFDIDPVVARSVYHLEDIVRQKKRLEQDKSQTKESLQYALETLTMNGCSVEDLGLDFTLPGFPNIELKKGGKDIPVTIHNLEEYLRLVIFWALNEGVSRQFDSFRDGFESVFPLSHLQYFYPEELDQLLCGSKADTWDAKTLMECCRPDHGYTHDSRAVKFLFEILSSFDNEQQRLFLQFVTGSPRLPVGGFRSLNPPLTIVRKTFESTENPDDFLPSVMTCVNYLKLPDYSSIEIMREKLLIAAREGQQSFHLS
UniProt G5E870: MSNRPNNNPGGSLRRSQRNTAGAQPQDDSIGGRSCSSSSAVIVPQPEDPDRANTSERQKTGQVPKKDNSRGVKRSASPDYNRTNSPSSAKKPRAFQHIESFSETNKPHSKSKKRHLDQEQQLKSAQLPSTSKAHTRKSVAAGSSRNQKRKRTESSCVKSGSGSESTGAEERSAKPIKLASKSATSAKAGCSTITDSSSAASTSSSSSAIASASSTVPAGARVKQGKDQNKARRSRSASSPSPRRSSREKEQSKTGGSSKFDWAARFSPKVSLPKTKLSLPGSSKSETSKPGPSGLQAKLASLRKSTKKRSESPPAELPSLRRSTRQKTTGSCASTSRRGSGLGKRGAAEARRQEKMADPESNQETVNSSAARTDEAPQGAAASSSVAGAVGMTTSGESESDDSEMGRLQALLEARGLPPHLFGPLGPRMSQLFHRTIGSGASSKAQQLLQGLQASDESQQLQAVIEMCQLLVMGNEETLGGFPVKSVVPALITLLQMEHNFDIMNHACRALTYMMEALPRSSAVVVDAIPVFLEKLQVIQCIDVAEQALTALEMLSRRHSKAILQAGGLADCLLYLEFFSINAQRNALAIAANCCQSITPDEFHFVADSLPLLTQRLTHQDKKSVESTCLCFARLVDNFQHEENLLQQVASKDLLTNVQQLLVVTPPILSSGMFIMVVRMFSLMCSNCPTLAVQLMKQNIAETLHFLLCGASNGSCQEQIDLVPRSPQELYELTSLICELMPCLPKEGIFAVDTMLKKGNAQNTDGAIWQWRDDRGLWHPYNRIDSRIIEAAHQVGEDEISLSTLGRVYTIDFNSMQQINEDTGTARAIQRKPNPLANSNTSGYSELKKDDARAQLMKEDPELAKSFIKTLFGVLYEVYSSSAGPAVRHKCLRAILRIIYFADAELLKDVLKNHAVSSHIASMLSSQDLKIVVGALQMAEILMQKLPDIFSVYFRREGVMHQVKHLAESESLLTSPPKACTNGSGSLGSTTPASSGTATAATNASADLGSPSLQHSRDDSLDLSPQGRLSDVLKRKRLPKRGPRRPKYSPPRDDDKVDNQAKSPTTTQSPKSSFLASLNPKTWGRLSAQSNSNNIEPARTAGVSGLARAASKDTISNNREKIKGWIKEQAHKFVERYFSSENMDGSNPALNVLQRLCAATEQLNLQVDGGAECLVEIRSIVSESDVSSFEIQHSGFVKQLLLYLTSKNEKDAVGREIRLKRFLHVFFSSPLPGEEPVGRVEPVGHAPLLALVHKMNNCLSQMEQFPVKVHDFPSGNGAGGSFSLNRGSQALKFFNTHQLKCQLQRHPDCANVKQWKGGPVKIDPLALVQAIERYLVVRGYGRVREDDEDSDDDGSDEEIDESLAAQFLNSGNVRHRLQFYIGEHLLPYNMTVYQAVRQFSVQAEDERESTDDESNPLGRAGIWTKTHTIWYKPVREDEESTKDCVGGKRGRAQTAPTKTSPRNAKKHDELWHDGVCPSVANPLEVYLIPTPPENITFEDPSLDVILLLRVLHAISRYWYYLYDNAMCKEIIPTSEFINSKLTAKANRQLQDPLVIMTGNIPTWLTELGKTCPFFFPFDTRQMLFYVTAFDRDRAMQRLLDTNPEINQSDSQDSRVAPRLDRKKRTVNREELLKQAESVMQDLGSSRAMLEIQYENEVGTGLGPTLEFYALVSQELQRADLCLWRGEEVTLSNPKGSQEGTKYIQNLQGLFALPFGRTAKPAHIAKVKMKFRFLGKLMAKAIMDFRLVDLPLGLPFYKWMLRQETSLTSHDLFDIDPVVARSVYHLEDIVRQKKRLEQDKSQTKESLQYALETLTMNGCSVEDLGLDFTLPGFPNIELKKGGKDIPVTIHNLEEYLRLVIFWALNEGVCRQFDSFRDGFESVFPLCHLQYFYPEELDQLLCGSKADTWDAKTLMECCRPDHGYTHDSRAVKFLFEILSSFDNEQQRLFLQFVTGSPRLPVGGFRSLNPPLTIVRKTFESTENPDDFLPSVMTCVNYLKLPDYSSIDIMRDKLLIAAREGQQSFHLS

Assay [1] addresses 2xStrep-CUL3 (in C2C12 myoblasts) (human) (UniProt Q13618). The assay can be described thus: co-IP; 2xStrep-CUL3 stably expressed in C2C12 myoblasts, purified on Strep-Tactin XT resin from lysate (4°C, 1 h); with or without MLN4924; with or without sodium arsenite; western blotting.

These are yes or no findings as the source states them, for the method shown. For some assays here: Binding seen in cells or lysates may run through a third protein. Some entries that bind do so weakly or less than the wild type.

Regarding “CUL3/RBX1 (from UniProt Q13618 1-768; P62877 1-108) (complex)”, in the assay with 2xStrep-TRIP12 (human), the binding result was “binds”.
On to “TRIP12 (endogenous, C2C12 myoblasts) (from UniProt G5E870 1-2025) (enzyme)”, for which, in assay [1], the binding result is listed as “binds”.
